Experimental data taken from PMC8280106 (2021).
No constants are given. Whether binding was seen depends on the method and setting. In cells and extracts the contact can be indirect. Some entries that bind do so weakly or less than the wild type.

The chains behind the UniProt entries cited, without tags or fusion partners. Where a name states a change or a piece, a line headed by the entry shows the natural chain unless it says otherwise. A line that says so, or that is headed by a name, gives the form on record, which may keep a tag or linker.
endogenous CD44s (CD44 standard isoform) (human (endogenous in CRC cells)) (P16070, form named): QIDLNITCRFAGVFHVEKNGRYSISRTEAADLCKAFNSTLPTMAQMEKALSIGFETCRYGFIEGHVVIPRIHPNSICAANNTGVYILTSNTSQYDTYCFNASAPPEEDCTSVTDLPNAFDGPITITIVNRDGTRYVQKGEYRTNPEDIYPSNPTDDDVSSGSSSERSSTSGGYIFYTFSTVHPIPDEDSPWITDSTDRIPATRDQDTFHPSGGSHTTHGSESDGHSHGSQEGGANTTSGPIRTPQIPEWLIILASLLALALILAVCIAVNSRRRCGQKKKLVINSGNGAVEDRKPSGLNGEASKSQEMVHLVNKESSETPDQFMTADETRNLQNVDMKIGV
UniProt P40763: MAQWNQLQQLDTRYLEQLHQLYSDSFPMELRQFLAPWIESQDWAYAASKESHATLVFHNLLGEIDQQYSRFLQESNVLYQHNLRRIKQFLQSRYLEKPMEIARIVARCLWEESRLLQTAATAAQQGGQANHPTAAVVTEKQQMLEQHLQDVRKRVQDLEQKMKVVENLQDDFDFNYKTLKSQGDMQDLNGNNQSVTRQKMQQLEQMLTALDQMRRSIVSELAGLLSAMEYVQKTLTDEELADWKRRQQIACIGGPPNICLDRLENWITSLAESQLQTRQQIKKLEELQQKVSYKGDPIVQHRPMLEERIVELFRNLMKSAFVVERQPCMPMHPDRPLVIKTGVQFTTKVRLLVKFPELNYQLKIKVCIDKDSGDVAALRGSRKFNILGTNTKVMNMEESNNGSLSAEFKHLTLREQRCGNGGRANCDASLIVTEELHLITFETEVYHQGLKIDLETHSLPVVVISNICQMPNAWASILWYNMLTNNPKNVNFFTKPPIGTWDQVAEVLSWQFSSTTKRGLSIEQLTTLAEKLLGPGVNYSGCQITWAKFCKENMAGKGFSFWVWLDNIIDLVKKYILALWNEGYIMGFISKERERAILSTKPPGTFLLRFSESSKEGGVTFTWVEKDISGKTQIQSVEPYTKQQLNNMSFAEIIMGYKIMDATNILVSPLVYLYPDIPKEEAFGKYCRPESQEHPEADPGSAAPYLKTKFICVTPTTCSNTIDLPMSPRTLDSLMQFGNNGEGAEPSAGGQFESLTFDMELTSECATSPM

Molecular target: endogenous CD44s (CD44 standard isoform) (human (endogenous in CRC cells)) (UniProt P16070)
Experiment: co-IP; endogenous proteins from cells in the presence or absence of 0.152 μM TFF3; co-IP kit (Pierce), antibody coupled to resin, lysate at 4 °C overnight; IgG as control antibody

binding: binds
Substance: signal transducer and activator of transcription 3 (STAT3), endogenous (from UniProt P40763 1-770)
